{"source": "PubChem BioAssay AID1159584 (Peter MacCallum Cancer Centre, 2016)", "aim": "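Genes that CDH1-null MCF10A cells selectively depend on to survive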 (primary screen)", "cell system": "human MCF10A breast epithelial cells, parental and CDH1-null", "knock-down reagent": "siRNA against human genes", "detection": "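ATP luminescence (CellTiter-Glo) viability per line relative to mean mock wells over all plates, and the ratio of CDH1-null to parental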", "reading the numbers": "CDH1-null / parental viability ratio: higher = CDH1-null cells survive relatively better than parental; CDH1-null viability vs mock: higher = more viable CDH1-null cells", "note": "The whole screen tested about 18,000 reagents; shown is an unselected part. Further read-outs or replicates are left out here. Reagent sequences are not shown. The record does not give: the amount of reagent, the time to read-out."}
{"gene": "NUP35 (nucleoporin 35)", "CDH1-null / parental viability ratio": 0.65, "CDH1-null viability vs mock (fraction of mock)": 0.36}
{"gene": "ALKBH8 (alkB homolog 8, tRNA methyltransferase)", "CDH1-null / parental viability ratio": 1.03, "CDH1-null viability vs mock (fraction of mock)": 0.8}
{"gene": "AKIRIN2 (akirin 2)", "CDH1-null / parental viability ratio": 0.77, "CDH1-null viability vs mock (fraction of mock)": 0.44}
{"gene": "FXYD5 (FXYD domain containing ion transport regulator 5)", "CDH1-null / parental viability ratio": 1.43, "CDH1-null viability vs mock (fraction of mock)": 0.63}
{"gene": "ACTR6 (actin related protein 6)", "CDH1-null / parental viability ratio": 0.89, "CDH1-null viability vs mock (fraction of mock)": 0.68}
{"gene": "PHYKPL (5-phosphohydroxy-L-lysine phospho-lyase)", "CDH1-null / parental viability ratio": 0.9, "CDH1-null viability vs mock (fraction of mock)": 0.74}
{"gene": "CCT2 (chaperonin containing TCP1 subunit 2)", "CDH1-null / parental viability ratio": 1.32, "CDH1-null viability vs mock (fraction of mock)": 0.75}
{"gene": "SLBP (stem-loop histone mRNA binding protein)", "CDH1-null / parental viability ratio": 0.87, "CDH1-null viability vs mock (fraction of mock)": 0.4}
{"gene": "S100A14 (S100 calcium binding protein A14)", "CDH1-null / parental viability ratio": 0.92, "CDH1-null viability vs mock (fraction of mock)": 0.6}
{"gene": "IP6K1 (inositol hexakisphosphate kinase 1)", "CDH1-null / parental viability ratio": 1.05, "CDH1-null viability vs mock (fraction of mock)": 0.88}
{"gene": "KRTAP2-4 (keratin associated protein 2-4)", "CDH1-null / parental viability ratio": 0.89, "CDH1-null viability vs mock (fraction of mock)": 0.7}
{"gene": "SYT10 (synaptotagmin 10)", "CDH1-null / parental viability ratio": 1.06, "CDH1-null viability vs mock (fraction of mock)": 1.02}
{"gene": "ZNF564 (zinc finger protein 564)", "CDH1-null / parental viability ratio": 0.9, "CDH1-null viability vs mock (fraction of mock)": 0.6}
{"gene": "VN1R4 (vomeronasal 1 receptor 4)", "CDH1-null / parental viability ratio": 1.51, "CDH1-null viability vs mock (fraction of mock)": 1.06}
{"gene": "SPPL2C (signal peptide peptidase like 2C)", "CDH1-null / parental viability ratio": 1.27, "CDH1-null viability vs mock (fraction of mock)": 0.89}
{"gene": "ROBO1 (roundabout guidance receptor 1)", "CDH1-null / parental viability ratio": 0.85, "CDH1-null viability vs mock (fraction of mock)": 0.74}
{"gene": "TOR4A (torsin family 4 member A)", "CDH1-null / parental viability ratio": 0.85, "CDH1-null viability vs mock (fraction of mock)": 0.73}
{"gene": "CDNF (cerebral dopamine neurotrophic factor)", "CDH1-null / parental viability ratio": 0.84, "CDH1-null viability vs mock (fraction of mock)": 0.76}
{"gene": "P2RX3 (purinergic receptor P2X 3)", "CDH1-null / parental viability ratio": 1.33, "CDH1-null viability vs mock (fraction of mock)": 1.17}
{"gene": "LRRC20 (leucine rich repeat containing 20)", "CDH1-null / parental viability ratio": 1, "CDH1-null viability vs mock (fraction of mock)": 0.78}
{"gene": "MAK16 (MAK16 homolog)", "CDH1-null / parental viability ratio": 1.07, "CDH1-null viability vs mock (fraction of mock)": 0.58}
{"gene": "ING3 (inhibitor of growth family member 3)", "CDH1-null / parental viability ratio": 1.02, "CDH1-null viability vs mock (fraction of mock)": 0.56}
{"gene": "IFNE (interferon epsilon)", "CDH1-null / parental viability ratio": 1.33, "CDH1-null viability vs mock (fraction of mock)": 0.32}
{"gene": "GAS1 (growth arrest specific 1)", "CDH1-null / parental viability ratio": 1, "CDH1-null viability vs mock (fraction of mock)": 0.74}
{"gene": "CYP3A4 (cytochrome P450 family 3 subfamily A member 4)", "CDH1-null / parental viability ratio": 1.02, "CDH1-null viability vs mock (fraction of mock)": 0.97}
{"gene": "UCMA (upper zone of growth plate and cartilage matrix associated)", "CDH1-null / parental viability ratio": 0.92, "CDH1-null viability vs mock (fraction of mock)": 0.9}
{"gene": "IQCJ (IQ motif containing J)", "CDH1-null / parental viability ratio": 0.88, "CDH1-null viability vs mock (fraction of mock)": 0.59}
{"gene": "CRIPT (CXXC repeat containing interactor of PDZ3 domain)", "CDH1-null / parental viability ratio": 0.93, "CDH1-null viability vs mock (fraction of mock)": 0.95}
{"gene": "DRC12 (dynein regulatory complex subunit 12 homolog)", "CDH1-null / parental viability ratio": 1.05, "CDH1-null viability vs mock (fraction of mock)": 0.86}
{"gene": "BAZ2A (bromodomain adjacent to zinc finger domain 2A)", "CDH1-null / parental viability ratio": 1.15, "CDH1-null viability vs mock (fraction of mock)": 0.84}
{"gene": "UGT2B15 (UDP glucuronosyltransferase family 2 member B15)", "CDH1-null / parental viability ratio": 0.95, "CDH1-null viability vs mock (fraction of mock)": 0.95}
{"gene": "BCKDK (branched chain keto acid dehydrogenase kinase)", "CDH1-null / parental viability ratio": 0.75, "CDH1-null viability vs mock (fraction of mock)": 0.53}
{"gene": "MFSD6 (major facilitator superfamily domain containing 6)", "CDH1-null / parental viability ratio": 0.89, "CDH1-null viability vs mock (fraction of mock)": 0.78}
{"gene": "CAPN2 (calpain 2)", "CDH1-null / parental viability ratio": 0.92, "CDH1-null viability vs mock (fraction of mock)": 0.47}
{"gene": "PCDHB4 (protocadherin beta 4)", "CDH1-null / parental viability ratio": 0.91, "CDH1-null viability vs mock (fraction of mock)": 0.84}

Part of the list above, reduced to “CDH1-null / parental viability ratio”:
TOR4A (torsin family 4 member A): 0.85
CDNF (cerebral dopamine neurotrophic factor): 0.84
P2RX3 (purinergic receptor P2X 3): 1.33
LRRC20 (leucine rich repeat containing 20): 1
MAK16 (MAK16 homolog): 1.07
ING3 (inhibitor of growth family member 3): 1.02
